Where a name gives a salt, the structure may show the parent alone. The list shows a part of the results. Many values rest on one well or one pass, so single values are uncertain.
Each compound was assayed on Neuro-2a (assay: neurite formation score, plate-normalized to DMSO control mean 5.04 (score (0-8 scale)); higher = more or longer neurites). Conditions: 10 µM.

SMILES | neurite formation score
CNC(=O)Nc1ccc(-c2nc(N3CC4CCC(C3)O4)c3cnn(C4CCC5(CC4)OCCO5)c3n2)cc1 | 4.86
Cc1nc2c(-c3cnc(N)nc3)nc(N3CCOCC3)nc2n1C(C)C | 3.74
COc1cc2nccc(Oc3ccc(NC(=O)Nc4ccc(F)cc4F)c(F)c3)c2cc1OC | 4.21
CN1CCN(c2ccc(Nc3cc(-c4cccc(-n5ccc6cc(C7CC7)cc(F)c6c5=O)c4CO)cn(C)c3=O)nc2)CC1 | 2.09
O=C(O)c1ccc(-c2c[nH]c3ncc(-c4ccccc4)cc23)cc1C1CCCC1 | 1.43
O=c1c(-c2ccc(O)cc2)coc2cc(O)cc(O)c12 [Genistein] | 4.54
COc1cc2ncnc(Nc3ccc(F)c(Cl)c3)c2cc1OCCCN1CCOCC1 [Gefitinib (ZD1839)] | 4.85
Cc1csc(-c2nnc(Nc3ccc(Oc4ncccc4-c4ccnc(N)n4)cc3)c3ccccc23)c1 | 1.41
O=C1c2ccc(Nc3ccc(F)cc3F)cc2CCc2ccc(OC[C@H](O)CO)cc21 [Skepinone-L] | 2.08
CCn1c2ccccc2c2cc(Nc3ccnc(NCCCN4CCOCC4)n3)ccc21 | 0.189
COc1ccc2c(c1)c(C1=C(c3c[nH]c4ccccc34)C(=O)NC1=O)cn2CCCN(C)C | 5.52
COc1ccc(S(=O)(=O)N(CCO)c2ccccc2CN(C)C/C=C/c2ccc(Cl)cc2)cc1 [KN-93 Phosphate] | 4.19
Cc1c[nH]c(/C=C2\C(=O)Nc3ccccc32)c1CCC(=O)O | 4.41
COc1cc2ncnc(Nc3ccc(O)c(Br)c3)c2cc1OC | 2.76
O=c1cc(CN2CCOCC2)occ1OCCCCCSc1ccnc2cc(C(F)(F)F)ccc12 | 4.52
O=C1NC(=O)C(=Cc2ccc(-c3ccc(F)cc3)o2)S1 (stereo in doubt) | 3.52
C=CC(=O)Nc1cccc(Nc2nc(Nc3ccc(OCCOC)cc3)ncc2F)c1 | 0.209
Brc1c(Br)c(Br)c2n[nH]nc2c1Br | 0.0903
CCN(CC)CCCCNc1ncc2cc(-c3cc(OC)cc(OC)c3)c(NC(=O)NC(C)(C)C)nc2n1 | 4.19
Cn1cc(-c2[nH]c3cc(NC(=O)[C@H](N)C4CCCCC4)cc4c3c2C=NNC4=O)cn1 | 1.09

Three compounds out of the list, ordered by SMILES length, ascending.
SMILES | neurite formation score
O=C(O)c1ccc(-c2c[nH]c3ncc(-c4ccccc4)cc23)cc1C1CCCC1 | 1.43
CCN(CC)CCCCNc1ncc2cc(-c3cc(OC)cc(OC)c3)c(NC(=O)NC(C)(C)C)nc2n1 | 4.19
CNC(=O)Nc1ccc(-c2nc(N3CC4CCC(C3)O4)c3cnn(C4CCC5(CC4)OCCO5)c3n2)cc1 | 4.86

Carrying on:

SMILES | neurite formation score
CCN1CCN(Cc2ccc(NC(=O)Nc3ccc(Oc4cc(NC)ncn4)cc3)cc2C(F)(F)F)CC1 | 3.21
CN1CCN(C2CCN(C(=O)Nc3cc(Oc4ccc(NC(=O)C5(C(=O)Nc6ccc(F)cc6)CC5)c(F)c4)ccn3)CC2)CC1 [Golvatinib (E7050)] | 2.09
CN(C)S(=O)(=O)c1ccc2c(c1)/C(=C/c1cc3c([nH]1)CCCC3)C(=O)N2 | 2.52
Cc1nc(Nc2cnn(C3CCNCC3)c2)nc2c1N(C)C(=O)c1cc3ccccc3cc1N2C | 1.09
O=C(c1ccc(/C=C/c2n[nH]c3ccccc23)cc1)N1CCNCC1 | 5.08
CCN1CCN(Cc2ccc(-c3cc4c(N[C@H](C)c5ccccc5)ncnc4[nH]3)cc2)CC1 | 1.52
O=C1NC(=O)/C(=C/c2cccc(C(F)(F)F)c2)S1 | 1.74
N=C(N)NC(=N)NCCc1ccccc1 [Phenformin HCl] | 4.42
CNC(=O)c1cc(Oc2ccc3nc(N[C@@H]4CCCC[C@H]4O)sc3c2)ccn1 | 3.86
COc1cc2nccc(Oc3ccc(NC(=O)C4(C(=O)Nc5ccc(F)cc5)CC4)cc3)c2cc1OC [Cabozantinib malate (XL184)] | 1.09
O=C(Nc1ccccc1C(=O)NC1CCCCNC1=O)c1cc2ccccc2s1 (centres undefined) | 4.86
O=C1NC(=NCc2cccs2)S/C1=C\c1ccc2ncccc2c1 | 5.09
C[C@H]1Oc2cc(cnc2N)-c2c(nn(C)c2C#N)CN(C)C(=O)c2ccc(F)cc21 | 5.19
CNC(=O)c1ccccc1Sc1ccc2c(/C=C/c3ccccn3)n[nH]c2c1 | 4.52
Nc1ccc(C(=O)Nc2cccc(-c3nc(N4CCOCC4)c4oc5ncccc5c4n3)c2)cn1 | 1.19
O=C1NC(=O)C(c2ccccc2[N+](=O)[O-])=C1Nc1ccc(O)c(Cl)c1 | 4.85
CCN(CC)CCNC(=O)c1c(C)[nH]c(/C=C2\C(=O)Nc3ccc(F)cc32)c1C [Sunitinib] | 2.09
CS(=O)(=O)c1ccc(-c2cnc(N)c(C(=O)Nc3ccccc3)n2)cc1 | 3.21
C[S+]([O-])c1ccc(-c2nc(-c3ccc(F)cc3)c(-c3ccncc3)[nH]2)cc1 (centres undefined) | 4.85

Source: the supplement of paper PMC8047044
